Measurements as given in article PMC8508133.
No constants are given. Whether binding was seen depends on the method and setting. In cells and extracts the contact can be indirect. Some entries that bind do so weakly or less than the wild type. Sequences can lack the tags named with a protein.

Sequences of proteins named here, by UniProt entry; tags and fusion partners are left off. Residues count along the entry.
UniProt P31266: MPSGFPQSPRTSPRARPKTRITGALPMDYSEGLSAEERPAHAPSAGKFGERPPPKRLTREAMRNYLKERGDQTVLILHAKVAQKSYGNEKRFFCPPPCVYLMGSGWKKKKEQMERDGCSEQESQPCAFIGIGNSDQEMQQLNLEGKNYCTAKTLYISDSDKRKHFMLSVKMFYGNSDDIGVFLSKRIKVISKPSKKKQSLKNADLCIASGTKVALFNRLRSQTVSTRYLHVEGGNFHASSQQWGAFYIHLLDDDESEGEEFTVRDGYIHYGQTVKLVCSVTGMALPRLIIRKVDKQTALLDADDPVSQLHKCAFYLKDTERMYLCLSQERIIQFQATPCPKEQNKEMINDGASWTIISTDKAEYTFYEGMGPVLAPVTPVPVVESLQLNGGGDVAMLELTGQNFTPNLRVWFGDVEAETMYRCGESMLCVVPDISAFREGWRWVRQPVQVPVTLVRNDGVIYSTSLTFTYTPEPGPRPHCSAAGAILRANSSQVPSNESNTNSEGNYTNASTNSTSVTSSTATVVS
UniProt P46531, residues 1761-2555: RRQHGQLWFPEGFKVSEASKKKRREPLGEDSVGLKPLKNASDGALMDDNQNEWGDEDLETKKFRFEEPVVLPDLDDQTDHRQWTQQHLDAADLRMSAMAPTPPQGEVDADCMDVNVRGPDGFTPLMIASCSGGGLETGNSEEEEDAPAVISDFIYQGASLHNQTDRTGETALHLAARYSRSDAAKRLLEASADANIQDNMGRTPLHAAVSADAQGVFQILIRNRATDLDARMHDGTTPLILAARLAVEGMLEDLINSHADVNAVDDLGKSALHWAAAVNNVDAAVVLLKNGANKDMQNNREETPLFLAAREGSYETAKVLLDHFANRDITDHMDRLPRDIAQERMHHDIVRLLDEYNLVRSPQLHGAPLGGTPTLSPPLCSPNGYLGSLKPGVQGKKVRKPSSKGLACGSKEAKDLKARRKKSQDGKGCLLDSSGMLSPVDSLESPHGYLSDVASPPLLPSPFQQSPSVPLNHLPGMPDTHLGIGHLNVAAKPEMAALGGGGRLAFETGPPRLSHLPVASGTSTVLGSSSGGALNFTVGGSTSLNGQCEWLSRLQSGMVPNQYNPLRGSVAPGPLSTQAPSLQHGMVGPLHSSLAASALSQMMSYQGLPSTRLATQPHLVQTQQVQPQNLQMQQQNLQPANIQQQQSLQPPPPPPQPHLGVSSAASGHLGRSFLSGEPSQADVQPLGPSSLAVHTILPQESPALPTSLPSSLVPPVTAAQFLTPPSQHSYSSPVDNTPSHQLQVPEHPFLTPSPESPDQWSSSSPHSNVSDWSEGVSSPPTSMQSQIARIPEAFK

target: Flag-tagged RBPJ (UniProt P31266); assay: co-IP; HEK293 cells cotransfected with Flag- and GFP-tagged constructs, lysed 24 h later in CHAPS lysis buffer (10 mM CHAPS, 50 mM Tris-HCl pH 7.8, 150 mM NaCl); agarose-conjugated anti-Flag (M2) at 4 °C overnight, 6 to 8 washes; co-precipitated proteins detected with anti-GFP

Molecule	binding
GFP-tagged NICD (human NOTCH1 intracellular domain, aa 1761-2555) (from UniProt P46531 1761-2555) (domain or fragment)	binds
GFP-tagged KyoT2 (protein, UniProt P97447-2 1-194) MSEKFDCHYCRDPLQGKKYVQKDGRHCCLKCFDKFCANTCVDCRKPISADAKEVHYKNRYWHDNCFRCAKCLHPLASETFVSKDGKILCNKCATREDSPRCKGCFKAIVAGDQNVEYKGTVWHKDCFTCSNCKQVIGTGSFFPKGEDFYCVTCHETKFAKHCVKCNKGLVKAPVWWPMKDNPGTTTASTAKNAP	binds

More lines, now with the values ahead:

binding	Molecule
binds	RITA (protein, UniProt Q96K30 1-269) MKTPVELAVSGMQTLGLQHRCRGGYRVKARTSYVDETLFGSPAGTRPTPPDFDPPWVEKANRTRGVGKEASKALGAKGSCETTPSRGSTPTLTPRKKNKYRPISHTPSYCDESLFGSRSEGASFGAPRMAKGDAAKLRALLWTPPPTPRGSHSPRPREAPLRAIHPAGPSKTEPGPAADSQKLSMGGLHSSRPLKRGLSHSLTHLNVPSTGHPATSAPHTNGPQDLRPSTSGVTFRSPLVTSRARSVSISVPSTPRRGGATQKPKPPWK
binds	PTF1a (protein, UniProt Q9QX98 1-324) MDAVLLEHFPGGLDTFPSPYFDEEDFFTDQSSRDPLEDSDELLGDEQAEVEFLSHQLHEYCYRDGACLLLQPAPSAAPHALAPPPLGDPGEPEDNVSYCCDAGAPLAAFPYSPGSPPSCLAYPCAAVLSPGARLGGLNGAAAAAAARRRRRVRSEAELQQLRQAANVRERRRMQSINDAFEGLRSHIPTLPYEKRLSKVDTLRLAIGYINFLSELVQADLPLRGSGAGGCGGPGGSRHLGEDSPGNQAQKVIICHRGTRSPSPSDPDYGLPPLAGHSLSWTDEKQLKEQNIIRTAKVWTPEDPRKLNSKSFDNIENEPPFEFVS
